Results from the supplement of paper PMC10338343.
± gives the standard deviation. This is one part of the list. Many entries were measured with a wide error.

Each sequence was assayed on EfPiwi piRISC loaded with L1MC piRNA (26 nt) (assay: pre-steady-state target cleavage rate (min^-1); guide: L1MC piRNA 5'p-UAACUAAAUACUAUGCAAGCUGUAGG; MIWI and MILI are mouse PIWI proteins and EfPiwi is from a freshwater sponge; tags in brackets are library labels; higher = faster piRNA-guided slicing of the target). Settings: auxiliary factor: none (no Gtsf1).
Procedure, shortened: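 Using HEPES–potassium acetate buffer at 33 °C, 1 nM active affinity-purified piRISC with a single synthetic guide was mixed with 0.1 nM transcribed, DNA-blocked target RNA library for 0–8 or 0–960 min, with or without 500 nM GTSF1 partner protein. Uncleaved targets were sequenced and normalised to depth and to weakly complementary targets, and three trials were pooled with k3 capped at 0.0001 min^-1. A burst-and-steady-state fit gave the pre-steady-state cleavage rate.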

| Sequence | pre-steady-state target cleavage rate |
| --- | --- |
| UCCUCCUACAGCUUGCAUAGUGAUUUAGUUA | 0.000784 ± 0.0071 |
| UCCUGGAUGUCGAUGCAUAGUAUUUACGUUA | 0.000146 ± 0.053 |
| UCCUGGAUGAGCUUGCAUAGUCUUUAGUUA | 0.0128 ± 0.0056 |
| UCCUGGAUCUGCUUGCAUAGUAUUAAGUUA | 0.0025 ± 0.0051 |
| UCCUGGAACACGCUUGCAUAGUAUUUAGUUA | 0.000745 ± 0.013 |
| UCCUGGAACAGCUUGCAAAGUAUUAAGUUA | 0.000308 ± 0.023 |
| UCCUGGAUGAGCUUGCAUUGUAUUUUGUUA | 0.000237 ± 0.043 |
| UCCUGGAACAGCUUGCAUAGUAUUUAGAUA | 0.00153 ± 0.007 |
| UCCUGGAUGAGCUAGCUUAGUAUUUAGUUA | 0.0008 ± 0.0083 |
| UCCUGGAACAGCUUGGAUAGUAUUAAGUUA | 0.000995 ± 0.0093 |
| UCCUGGUACAGCUUGCAAAGUAUUUAGAAA | 0.000181 ± 0.023 |
| UCCUGGAUGACCUUGCAUAGUAAUUAGUUA | 0.00116 ± 0.0096 |
| UCCUGGAUCAGCUUGGAUAGUAAUUAGUUA | 0.000125 ± 0.074 |
| UCCUGCUACAGCUAGCAUAGUAUUUUGUUA | 0.000211 ± 0.032 |
| UCCUGGAACAGCUUGCAUUGUAUUAAGUUA | 0.000838 ± 0.011 |
| UCCUGGAUGUGCUUGCAUACUAUUUAGUUA | 0.00208 ± 0.0062 |

Shown as comma-separated lines: entries from further up
Sequence,pre-steady-state target cleavage rate
UCCUGGAUGUCGAUGCAUAGUAUUUACGUUA,0.000146 ± 0.053
UCCUGGAUGAGCUUGCAUAGUCUUUAGUUA,0.0128 ± 0.0056
